Assay results published in patent US20140235698A1, “RNA Aptamer Specifically Binding to Carcinoembryonic Antigen and Use thereof” (POSCO, published 2014).
A negative result means that nothing was seen under these conditions. Protein sequences can lack the tags named with them. For some of these results: At least one result comes from cells or an extract, where the contact may be indirect.

Tests used:
[1] = target: T1, CEA (CEACAM5) on CEA-positive colon cancer cells (Homo sapiens) (UniProt P06731); test: binding assay; conditions: 2'-F pyrimidines (C and U), fluorescence staining of fixed LS174T and LoVo cells, 500 nM, protein details: endogenous, label: biotin
T1 sequence (looked up, limits assumed): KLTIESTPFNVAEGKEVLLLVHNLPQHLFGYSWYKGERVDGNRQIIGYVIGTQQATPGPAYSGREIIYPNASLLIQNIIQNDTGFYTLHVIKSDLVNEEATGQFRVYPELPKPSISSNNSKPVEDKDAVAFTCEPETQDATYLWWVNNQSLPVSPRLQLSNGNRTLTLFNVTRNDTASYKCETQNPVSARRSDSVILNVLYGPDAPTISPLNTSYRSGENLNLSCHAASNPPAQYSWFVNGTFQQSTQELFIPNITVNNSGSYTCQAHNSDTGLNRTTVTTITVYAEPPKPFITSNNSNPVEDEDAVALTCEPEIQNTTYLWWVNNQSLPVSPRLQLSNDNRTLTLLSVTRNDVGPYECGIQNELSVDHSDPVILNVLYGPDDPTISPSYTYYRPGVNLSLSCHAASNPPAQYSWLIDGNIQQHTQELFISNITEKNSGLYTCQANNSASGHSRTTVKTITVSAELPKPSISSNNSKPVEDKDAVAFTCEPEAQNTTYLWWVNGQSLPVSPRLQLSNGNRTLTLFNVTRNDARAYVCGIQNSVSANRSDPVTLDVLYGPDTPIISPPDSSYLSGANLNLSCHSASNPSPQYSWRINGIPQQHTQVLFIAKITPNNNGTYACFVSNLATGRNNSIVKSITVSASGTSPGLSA

[2] = target: T2, NCEA in mammalian two-hybrid with DR5 (Homo sapiens) (UniProt P06731); test: activity in cells; conditions: protein details: GAL4 DNA-BD fusion (pM vector), 293T cells
T2 sequence (looked up, limits assumed): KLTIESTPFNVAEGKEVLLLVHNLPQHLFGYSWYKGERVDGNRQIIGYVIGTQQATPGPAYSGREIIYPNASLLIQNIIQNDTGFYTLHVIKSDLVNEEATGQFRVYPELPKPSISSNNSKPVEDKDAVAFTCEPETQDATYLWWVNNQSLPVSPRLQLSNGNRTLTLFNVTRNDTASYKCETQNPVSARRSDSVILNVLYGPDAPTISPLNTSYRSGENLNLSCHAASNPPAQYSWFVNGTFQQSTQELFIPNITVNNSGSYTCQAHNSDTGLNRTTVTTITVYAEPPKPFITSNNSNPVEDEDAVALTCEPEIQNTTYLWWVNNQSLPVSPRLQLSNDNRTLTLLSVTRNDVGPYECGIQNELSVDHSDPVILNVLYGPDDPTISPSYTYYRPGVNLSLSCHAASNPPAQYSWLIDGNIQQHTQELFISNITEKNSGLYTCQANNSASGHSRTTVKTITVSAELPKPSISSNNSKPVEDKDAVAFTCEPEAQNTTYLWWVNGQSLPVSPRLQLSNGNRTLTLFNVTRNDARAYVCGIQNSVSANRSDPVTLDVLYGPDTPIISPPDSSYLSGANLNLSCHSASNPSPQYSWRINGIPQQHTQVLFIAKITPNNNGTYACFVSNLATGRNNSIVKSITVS

Question: Does “GCGGAAGCGUGCUGGGCUAGAAUAAUAAUAAGAAAACCAGUACUUUCGU [Biotin-tagged YJ-1]” bind ([1]; PBS + 1.5 mM MgCl2, no staining of CEA-negative HT29, protein on the cell surface, variant of Truncated GROUP 1-1 (19-1, YJ-1))?
Answer: binds

Question: “GCGGAAGCGUGCUGGGCUAGAAUAAUAAUAAGAAAACCAGUACUUUCGU [YJ-1 expressed in cells (7SL promoter vector)]” was tested. Which “functional effect of the aptamer” value ([2]; blocks NCEA-DR5 interaction (SEAP not increased), protein in cells, variant of Truncated GROUP 1-1 (19-1, YJ-1)) did it give?
Answer: active

Question: Does “GCGGAAGCGUGCUGGGCUAGGGCGGCGGCGGGAAAACCAGUACUUUCGU [Biotin-tagged mutant YJ-1]” bind ([1]; PBS + 1.5 mM MgCl2, protein on the cell surface, variant of Mutant GROUP 1-1 (m19-1, mutant YJ-1))?
Answer: no binding

Question: With “GCGGAAGCGUGCUGGGCUAGGGCGGCGGCGGGAAAACCAGUACUUUCGU [Mutant YJ-1 expressed in cells (7SL promoter vector)]” as the sequence, how does the “functional effect of the aptamer” value ([2]; SEAP still increased 2.5-fold, no inhibition of NCEA-DR5, protein in cells, variant of Mutant GROUP 1-1 (m19-1, mutant YJ-1)) read?
Answer: not active
